Results taken from paper PMC9709406 (Frontiers in Pharmacology, 2022).

Key:
Assay type in all cases: cell-based, human
H1975OR cells = assay: MTT assay, osimertinib-resistant H1975OR
Excerpt: (§1) The human cancer cells (H1650, H1975, KYSE70, KYSE410 and KYSE450) were purchased from the Type Culture Collection of the Chinese Academy of Sciences (Shanghai, China). The human immortalized normal esophageal epithelial cell line SHEE was donated by Dr. Enmin Li from the Laboratory of Tumor Pathology (Shantou University Medical College, Shantou, Guangdong, China). Drug-resistant cells (H1650TR, H1975OR, KYSE70TR, KYSE410TR and KYSE450TR) were induced by China-US (Henan) Hormel Cancer Institute. The cellswere cultured in RPMI-1640 complete growth medium containing 100 U/mL penicillin-streptomycin and 10% FBS. Based on the above medium formula, 100 nm/L paclitaxel was added in taxol-resistant cells, 100 nm/L gefitinib was added in gefitinib-resistant cells. The cells were incubated at 37 °C in an atmosphere containing 5% of CO2. The compounds were dissolved in DMSO to make a 50 mM stock solution and were diluted to the concentration of working solutions with complete growth medium before administration.
(§2) Cells were seeded in 96-well plates with 2,200–2,500 cells/well in100 μL. One day after seeding, test compounds with the concentration between 0 and 50 μM were added with 0.1% DMSO as control. Five multiple wells for each concentration. […] The absorbance at 490 nm was measured using a microplate reader (Thermo).

H1650TR cells = assay: MTT assay, taxol-resistant H1650TR
Excerpt: as §1
Cells were seeded in 96-well plates with 2,200–2,500 cells/well in100 μL. One day after seeding, test compounds with the concentration between 0 and 50 μM were added with 0.1% DMSO as control. Five multiple wells for each concentration. After 48 h, MTT was added and incubated in the plate for 1–4 h in the incubator. The absorbance at 490 nm was measured using a microplate reader (Thermo).

KYSE70TR cells = assay: MTT assay, taxol-resistant KYSE70TR
Excerpt: as §1, §2

KYSE410TR cells = assay: MTT assay, taxol-resistant KYSE410TR
Excerpt: as §1, §2

KYSE450TR cells = assay: MTT assay, taxol-resistant KYSE450TR
Excerpt: as §1, §2

Structure (SMILES) | Resistance index (24 h) (H1975OR cells; H1975OR vs H1975, 24 h IC50) | Resistance index (48 h) (H1975OR cells; H1975OR vs H1975, 48 h IC50) | Resistance index (24 h) (H1650TR cells; H1650TR vs H1650, 24 h IC50) | Resistance index (48 h) (H1650TR cells; H1650TR vs H1650, 48 h IC50) | Resistance index (24 h) (KYSE70TR cells; KYSE 70 TR vs KYSE 70, 24 h IC50) | Resistance index (48 h) (KYSE70TR cells; KYSE 70 TR vs KYSE 70, 48 h IC50) | Resistance index (24 h) (KYSE410TR cells; KYSE 410 TR vs KYSE 410, 24 h IC50) | Resistance index (48 h) (KYSE410TR cells; KYSE 410 TR vs KYSE 410, 48 h IC50) | Resistance index (24 h) (KYSE450TR cells; KYSE 450 TR vs KYSE 450, 24 h IC50) | Resistance index (48 h) (KYSE450TR cells; KYSE 450 TR vs KYSE 450, 48 h IC50)
C=CC(=O)Nc1cc(Nc2nccc(-c3cn(C)c4ccccc34)n2)c(OC)cc1N(C)CCN(C)C [osimertinib] | 23.57 | 58.48 | – | – | – | – | – | – | – | –
CC(=O)O[C@H]1C(=O)[C@@]2(C)[C@H]([C@H](OC(=O)c3ccccc3)[C@]3(O)C[C@H](OC(=O)[C@H](O)[C@@H](NC(=O)c4ccccc4)c4ccccc4)C(C)=C1C3(C)C)[C@]1(OC(C)=O)CO[C@@H]1C[C@@H]2O [taxol, reference compound] | – | – | 4.74 | 7.74 | 7.69 | 56.00 | 5.00 | 32.88 | 4.84 | 15.38
